Source: PubChem BioAssay AID504808 (Drosophila RNAi Screening Center, 2011)

Test: 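Fly genes required to hold E2F transcription in check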 (primary screen)
System: Drosophila S2 cells
Reagents: long dsRNA against Drosophila genes
Detection: 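Dual luciferase plate measurements; E2F-specific signal taken as firefly over Renilla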
Direction: E2F firefly: higher = more E2F reporter activity; Renilla normaliser: higher = more normaliser reporter signal
Rule for the call: 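Called active if the normalised E2F reporter went up by over 50%; the cutoff is arbitrary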
The screen tested about 21,000 reagents; shown is an unselected part of those that have a named target and a result. Over the whole deposit, 18 (0.084%) are marked active. 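Raw counts without plate normalisation, one of two replicates; the ratio scores behind the calls were not deposited.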 Entries without a mark were called inactive. A plus sign joins genes that one reagent is predicted to hit. No sequences are given here. Not given: the amount of reagent, the time to read-out.

gene | amplicon | E2F firefly, rep 1 | Renilla normaliser, rep 1
Fbxl4 (F box and leucine-rich-repeat gene 4) | DRSC19805 | 7318 | 704
CG32276 | DRSC08027 | 1.23e5 | 4610
CG11583 | DRSC08202 | 53501 | 3454
Tusp | DRSC15838 | 1.00e5 | 7238
CG13297 | DRSC09971 | 1.03e5 | 4094
CG14186 | DRSC10185 | 93052 | 3644
CG4210 | DRSC15551 | 98905 | 5365
Eig71Ek | DRSC11158 | 1.71e5 | 7747
CG15649 | DRSC04240 | 1.01e5 | 4710
MED7 (Mediator complex subunit 7) | DRSC16059 | 88659 | 6658
mRpS23 (mitochondrial ribosomal protein S23) | DRSC01348 | 1.32e5 | 6074
PpN58A (Protein phosphatase N at 58A) | DRSC04642 | 85359 | 3595
CG34125 | DRSC00850 | 1.26e5 | 6333
CG8508 | DRSC16436 | 80146 | 3771
Rab27 | DRSC18567 | 1810 | 1128
exu (exuperantia) | DRSC07615 | 72601 | 4184
ND-30 (NADH dehydrogenase (ubiquinone) 30 kDa subunit) | DRSC08243 | 67191 | 3087
CG8768 | DRSC07259 | 164 | 37
Brms1 (BRMS1 transcriptional repressor) | DRSC19896 | 99973 | 5981
CG3734 | DRSC15509 | 1.39e5 | 6273
CG15370 | DRSC18042 | 1.18e5 | 6645
PGRP-SD (Peptidoglycan recognition protein SD) | DRSC10856 | 1.03e5 | 4157
CG9215 | DRSC20171 | 1.40e5 | 6054
cyst (cysts) | DRSC02023 | 75212 | 3309
CG12362 | DRSC09884 | 1.04e5 | 4604
eIF6 (eukaryotic translation initiation factor 6) | DRSC04674 | 84655 | 4315
CG3739 | DRSC15510 | 1.58e5 | 7340
CG18428 | DRSC15326 | 1.13e5 | 6610
brp (bruchpilot) | DRSC06245 | 1.48e5 | 5090
brp (bruchpilot) | DRSC06246 | 1.54e5 | 5465
brp (bruchpilot) | DRSC06801 | 1.36e5 | 5070
Not10 (CCR4-NOT transcription complex subunit 10) | DRSC14129 | 67520 | 3689
CG8568 | DRSC20113 | 1.66e5 | 5809
CG14357 | DRSC14820 | 1.01e5 | 5070
RpL18 (Ribosomal protein L18) | DRSC11016 | 99486 | 2606
CG16854 | DRSC02536 | 1.40e5 | 5263
dpr10 (defective proboscis extension response 10) | DRSC09015 | 1.35e5 | 4844
dpr10 (defective proboscis extension response 10) | DRSC09018 | 1.40e5 | 5082
dpr10 (defective proboscis extension response 10) | DRSC10159 | 89763 | 5158
dpr10 (defective proboscis extension response 10) | DRSC10160 | 79753 | 3666
Ip6k (Inositol hexakisphosphate kinase) | DRSC04054 | 76814 | 3531
CG14022 | DRSC02352 | 1.45e5 | 4812
CG9107 | DRSC03138 | 89639 | 3145
CG32023 | DRSC08946 | 1.41e5 | 5056
CG2059 | DRSC18203 | 43218 | 3982
CG5863 | DRSC15898 | 1.15e5 | 5753
hay (haywire) | DRSC11354 | 70115 | 3437
CG16762 | DRSC08493 | 1.06e5 | 4323
DIP-delta (Dpr-interacting protein delta) | DRSC10214 | 84931 | 3550
DIP-delta (Dpr-interacting protein delta) | DRSC10450 | 95672 | 3976
bc10 | DRSC11326 | 95105 | 3536
Cht4 (Chitinase 4) | DRSC04603 | 92997 | 3631

Records above whose target name starts with P or p:
gene | amplicon | E2F firefly, rep 1 | Renilla normaliser, rep 1
PpN58A (Protein phosphatase N at 58A) | DRSC04642 | 85359 | 3595
PGRP-SD (Peptidoglycan recognition protein SD) | DRSC10856 | 1.03e5 | 4157

The list goes on.
gene | amplicon | E2F firefly, rep 1 | Renilla normaliser, rep 1
Coq2 (Coenzyme Q biosynthesis protein 2) | DRSC16516 | 1.32e5 | 5886
Acox57D-p (acyl-Coenzyme A oxidase at 57D proximal) | DRSC04560 | 83460 | 2923
CG8661 | DRSC20115 | 1.53e5 | 5488
CG5013 | DRSC15695 | 1.17e5 | 5956
CG12310 | DRSC09878 | 1.44e5 | 6856
Cpr49Ac (Cuticular protein 49Ac) | DRSC07199 | 2682 | 198
CG5493 + CG5327 | DRSC06938 | 1.43e5 | 5743
CG7888 | DRSC10926 | 77028 | 3294
SkpC (SKP1-related C) | DRSC20375 | 1.43e5 | 5354
sosie | DRSC14636 | 1.04e5 | 5733
Drs (Drosomycin) | DRSC08657 | 1.02e5 | 4267
Sec24CD (Secretory 24CD) | DRSC00300 | 81779 | 3950
capu (cappuccino) | DRSC00208 | 1.33e5 | 5519
capu (cappuccino) | DRSC00209 | 1.32e5 | 5518
capu (cappuccino) | DRSC00434 | 1.57e5 | 5038
capu (cappuccino) | DRSC00807 | 92802 | 4421
CG13587 | DRSC04223 | 1.03e5 | 4453
Slc25A46b | DRSC02888 | 1.04e5 | 4232
CG9004 | DRSC08617 | 94409 | 4208
CG3906 | DRSC04431 | 72335 | 3312
CG14780 | DRSC18566 | 1.13e5 | 5453
CG13332 | DRSC06367 | 98142 | 4268
CG7829 | DRSC16322 | 1.38e5 | 7722
Acp53C14a (Accessory gland protein 53C14a) | DRSC07224 | 1.49e5 | 5118
CG33796 | DRSC09417 | 1.25e5 | 3668
CG15333 | DRSC18016 | 66461 | 4402
CG15333 | DRSC18153 | 1.15e5 | 5115
Grl43a (Gustatory receptor-like 43a) | DRSC06383 | 1.45e5 | 4967
CG31999 | DRSC17131 | 1.19e5 | 5502
CG31999 | DRSC17133 | 1.11e5 | 5621
jar (jaguar) | DRSC16974 | 1.02e5 | 5867
Arfrp1 (ADP-ribosylation factor related protein 1) | DRSC18417 | 7848 | 764
